Some of the results follow.
What was measured:
Test in all cases: log2 fold change, soluble protein after heating vs DMSO (PISA); higher = thermal stabilisation; K562 lysate, 10 uM; active = over 0.2 and 3.5 SD of the protein, either way, in both replicates (recomputed)
erlotinib = compound: C#Cc1cccc(Nc2ncnc3cc(OCCOC)c(OCCOC)cc23)c1 [erlotinib]
Procedure, shortened: (§1)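 Following dounce homogenisation of K562 pellets in PBS pH 7.4 with 1 mM MgCl2, crude extract at 1 mg/mL protein was incubated for 30 min with 10 μM compound. Aliquots were then heated for 3 min over 48°C-58°C and pooled, NP-40 was added to 0.5% at 4°C, and soluble protein was recovered as the supernatant at 21,000xg for 90 min. Channel-sum-equalised TMTpro 16plex LC-MS/MS quantified this protein. Each value, from duplicates, is a log-two fold change in thermal stability relative to solvent controls.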

Sequences of proteins named here, by UniProt entry; tags and fusion partners are left off. A change or cut given only in a name is not applied to a line headed by its entry.
UniProt Q86XK3: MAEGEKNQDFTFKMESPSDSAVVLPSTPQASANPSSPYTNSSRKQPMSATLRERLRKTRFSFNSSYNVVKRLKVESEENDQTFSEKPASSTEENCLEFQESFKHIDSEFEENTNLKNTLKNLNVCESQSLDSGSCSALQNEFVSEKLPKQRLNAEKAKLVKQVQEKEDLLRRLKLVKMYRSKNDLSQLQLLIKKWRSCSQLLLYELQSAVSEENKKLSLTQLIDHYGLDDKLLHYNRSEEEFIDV
UniProt Q8IXJ6: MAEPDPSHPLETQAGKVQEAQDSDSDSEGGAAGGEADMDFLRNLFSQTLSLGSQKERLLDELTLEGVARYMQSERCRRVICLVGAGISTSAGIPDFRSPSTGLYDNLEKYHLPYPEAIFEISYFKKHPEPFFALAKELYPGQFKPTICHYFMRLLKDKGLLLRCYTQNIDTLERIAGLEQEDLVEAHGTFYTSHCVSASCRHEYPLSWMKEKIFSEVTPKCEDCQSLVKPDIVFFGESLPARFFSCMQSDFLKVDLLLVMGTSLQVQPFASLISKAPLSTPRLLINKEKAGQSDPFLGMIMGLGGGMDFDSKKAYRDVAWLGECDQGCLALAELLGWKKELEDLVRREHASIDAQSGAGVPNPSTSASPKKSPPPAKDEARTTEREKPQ
UniProt Q12874: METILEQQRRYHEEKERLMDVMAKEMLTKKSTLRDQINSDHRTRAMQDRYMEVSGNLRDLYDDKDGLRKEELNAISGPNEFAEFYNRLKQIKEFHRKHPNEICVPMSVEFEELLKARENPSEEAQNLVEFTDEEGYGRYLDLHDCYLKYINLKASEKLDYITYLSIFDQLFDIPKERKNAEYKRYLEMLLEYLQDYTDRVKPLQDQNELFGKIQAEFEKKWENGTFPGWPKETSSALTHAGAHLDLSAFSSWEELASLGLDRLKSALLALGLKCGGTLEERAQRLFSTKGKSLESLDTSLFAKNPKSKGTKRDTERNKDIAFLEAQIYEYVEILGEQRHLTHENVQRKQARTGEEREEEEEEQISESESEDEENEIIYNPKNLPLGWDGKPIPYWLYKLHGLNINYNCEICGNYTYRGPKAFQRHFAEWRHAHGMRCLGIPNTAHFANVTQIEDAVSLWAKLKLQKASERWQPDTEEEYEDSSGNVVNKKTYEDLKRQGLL
UniProt P55011: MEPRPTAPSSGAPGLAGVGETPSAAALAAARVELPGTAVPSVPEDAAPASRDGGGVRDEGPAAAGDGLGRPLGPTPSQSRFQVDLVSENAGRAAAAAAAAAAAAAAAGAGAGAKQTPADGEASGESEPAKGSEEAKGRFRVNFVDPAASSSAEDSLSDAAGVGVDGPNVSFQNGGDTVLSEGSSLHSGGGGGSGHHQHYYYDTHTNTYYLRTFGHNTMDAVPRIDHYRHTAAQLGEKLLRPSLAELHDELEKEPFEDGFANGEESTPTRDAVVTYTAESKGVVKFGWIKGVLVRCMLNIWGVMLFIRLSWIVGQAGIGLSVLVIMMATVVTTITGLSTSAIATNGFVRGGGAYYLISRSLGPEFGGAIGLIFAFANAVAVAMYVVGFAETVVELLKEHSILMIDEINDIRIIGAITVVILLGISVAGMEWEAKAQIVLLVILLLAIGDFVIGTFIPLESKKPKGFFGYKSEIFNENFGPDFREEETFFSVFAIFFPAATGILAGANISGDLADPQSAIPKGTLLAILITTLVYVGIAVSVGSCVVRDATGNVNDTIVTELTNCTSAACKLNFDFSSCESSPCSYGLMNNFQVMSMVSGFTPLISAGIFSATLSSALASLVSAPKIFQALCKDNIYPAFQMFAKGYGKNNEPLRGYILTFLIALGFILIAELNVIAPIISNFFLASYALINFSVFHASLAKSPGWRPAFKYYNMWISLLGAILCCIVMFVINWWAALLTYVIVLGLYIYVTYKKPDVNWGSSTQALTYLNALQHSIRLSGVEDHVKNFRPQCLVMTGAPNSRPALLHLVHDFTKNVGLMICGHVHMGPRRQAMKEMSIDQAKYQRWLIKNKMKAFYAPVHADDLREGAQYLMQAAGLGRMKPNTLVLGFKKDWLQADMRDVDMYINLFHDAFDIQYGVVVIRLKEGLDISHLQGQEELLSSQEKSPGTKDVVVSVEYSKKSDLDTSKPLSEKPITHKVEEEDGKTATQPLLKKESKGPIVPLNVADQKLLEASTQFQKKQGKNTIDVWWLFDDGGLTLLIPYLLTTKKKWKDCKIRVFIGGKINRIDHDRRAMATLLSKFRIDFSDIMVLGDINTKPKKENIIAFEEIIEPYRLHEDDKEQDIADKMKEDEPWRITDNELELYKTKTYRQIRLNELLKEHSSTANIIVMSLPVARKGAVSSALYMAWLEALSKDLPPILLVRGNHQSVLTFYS
UniProt Q86TU7: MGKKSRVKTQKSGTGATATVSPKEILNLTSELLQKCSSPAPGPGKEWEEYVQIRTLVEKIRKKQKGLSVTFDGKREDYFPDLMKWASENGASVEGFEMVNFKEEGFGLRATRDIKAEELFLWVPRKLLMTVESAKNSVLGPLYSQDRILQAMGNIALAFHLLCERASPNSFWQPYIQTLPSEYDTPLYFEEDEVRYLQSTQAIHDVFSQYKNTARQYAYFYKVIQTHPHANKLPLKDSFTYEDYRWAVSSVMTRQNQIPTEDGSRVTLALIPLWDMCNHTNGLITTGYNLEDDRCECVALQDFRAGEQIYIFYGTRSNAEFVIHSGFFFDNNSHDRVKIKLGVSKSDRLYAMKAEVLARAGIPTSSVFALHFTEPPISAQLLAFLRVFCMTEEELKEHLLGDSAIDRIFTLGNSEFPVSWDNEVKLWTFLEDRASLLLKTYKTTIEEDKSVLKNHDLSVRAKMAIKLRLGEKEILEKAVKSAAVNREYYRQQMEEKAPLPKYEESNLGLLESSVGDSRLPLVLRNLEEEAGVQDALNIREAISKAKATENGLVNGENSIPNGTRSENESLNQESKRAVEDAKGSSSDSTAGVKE
UniProt P84101: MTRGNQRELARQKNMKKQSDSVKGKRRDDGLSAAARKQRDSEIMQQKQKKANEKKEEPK
UniProt Q9BWJ5: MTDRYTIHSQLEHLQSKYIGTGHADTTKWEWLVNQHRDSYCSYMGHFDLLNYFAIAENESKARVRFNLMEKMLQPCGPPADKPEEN
UniProt P23246: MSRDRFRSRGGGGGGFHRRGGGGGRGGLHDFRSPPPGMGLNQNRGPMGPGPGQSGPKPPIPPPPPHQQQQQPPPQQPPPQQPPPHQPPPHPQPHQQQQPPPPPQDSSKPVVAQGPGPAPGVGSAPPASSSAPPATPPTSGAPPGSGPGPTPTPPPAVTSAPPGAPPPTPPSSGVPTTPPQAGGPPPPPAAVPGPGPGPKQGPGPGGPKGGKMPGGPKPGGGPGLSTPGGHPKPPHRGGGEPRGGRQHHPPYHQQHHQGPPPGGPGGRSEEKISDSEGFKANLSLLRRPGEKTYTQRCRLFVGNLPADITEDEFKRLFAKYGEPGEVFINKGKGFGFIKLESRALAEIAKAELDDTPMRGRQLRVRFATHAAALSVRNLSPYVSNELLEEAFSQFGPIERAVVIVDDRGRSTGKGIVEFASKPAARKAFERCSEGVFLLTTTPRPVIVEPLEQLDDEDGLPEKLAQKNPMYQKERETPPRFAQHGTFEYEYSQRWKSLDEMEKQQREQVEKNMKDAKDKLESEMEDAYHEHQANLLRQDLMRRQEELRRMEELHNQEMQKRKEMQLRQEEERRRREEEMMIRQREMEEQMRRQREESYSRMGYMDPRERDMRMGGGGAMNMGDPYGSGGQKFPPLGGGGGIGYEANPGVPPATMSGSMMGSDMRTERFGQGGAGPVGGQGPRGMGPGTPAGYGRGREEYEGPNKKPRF
UniProt P63208, whole entry, looked up: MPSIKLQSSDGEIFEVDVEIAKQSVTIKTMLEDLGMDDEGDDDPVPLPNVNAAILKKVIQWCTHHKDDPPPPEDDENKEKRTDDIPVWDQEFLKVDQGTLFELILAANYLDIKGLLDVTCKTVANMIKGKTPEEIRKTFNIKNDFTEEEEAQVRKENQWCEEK
UniProt Q01105, whole entry, looked up: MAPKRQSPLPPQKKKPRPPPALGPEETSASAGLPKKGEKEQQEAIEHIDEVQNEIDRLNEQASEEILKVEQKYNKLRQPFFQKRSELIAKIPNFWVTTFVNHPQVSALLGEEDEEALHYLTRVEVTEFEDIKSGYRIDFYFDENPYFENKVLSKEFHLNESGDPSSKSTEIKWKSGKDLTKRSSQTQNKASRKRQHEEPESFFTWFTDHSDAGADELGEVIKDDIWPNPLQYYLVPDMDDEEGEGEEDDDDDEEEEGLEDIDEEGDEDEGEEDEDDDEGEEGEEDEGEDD
UniProt Q9UJC5: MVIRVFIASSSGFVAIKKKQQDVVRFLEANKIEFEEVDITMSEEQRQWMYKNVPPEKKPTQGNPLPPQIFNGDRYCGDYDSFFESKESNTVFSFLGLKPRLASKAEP
UniProt Q8NC51: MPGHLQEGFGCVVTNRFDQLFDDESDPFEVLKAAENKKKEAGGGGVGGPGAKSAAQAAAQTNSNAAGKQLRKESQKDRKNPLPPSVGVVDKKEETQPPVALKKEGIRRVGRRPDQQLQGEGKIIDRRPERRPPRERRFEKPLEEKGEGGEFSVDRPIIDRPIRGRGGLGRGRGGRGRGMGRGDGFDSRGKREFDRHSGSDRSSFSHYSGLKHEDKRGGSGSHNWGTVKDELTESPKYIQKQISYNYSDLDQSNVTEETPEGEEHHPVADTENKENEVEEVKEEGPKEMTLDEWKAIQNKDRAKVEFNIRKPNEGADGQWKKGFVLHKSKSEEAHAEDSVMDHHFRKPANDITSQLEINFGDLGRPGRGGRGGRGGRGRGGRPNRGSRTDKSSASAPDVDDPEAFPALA
UniProt P36955: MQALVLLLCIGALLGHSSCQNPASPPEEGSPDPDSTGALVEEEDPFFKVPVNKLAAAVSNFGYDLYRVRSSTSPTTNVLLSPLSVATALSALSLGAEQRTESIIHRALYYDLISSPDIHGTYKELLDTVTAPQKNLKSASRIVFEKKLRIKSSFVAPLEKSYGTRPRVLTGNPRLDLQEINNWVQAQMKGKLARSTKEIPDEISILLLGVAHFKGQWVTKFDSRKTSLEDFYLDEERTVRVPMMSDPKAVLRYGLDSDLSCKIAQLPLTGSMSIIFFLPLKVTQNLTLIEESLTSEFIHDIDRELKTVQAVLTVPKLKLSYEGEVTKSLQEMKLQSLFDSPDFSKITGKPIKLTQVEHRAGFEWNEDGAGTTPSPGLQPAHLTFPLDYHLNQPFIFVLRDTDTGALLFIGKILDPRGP
UniProt Q9Y3B4: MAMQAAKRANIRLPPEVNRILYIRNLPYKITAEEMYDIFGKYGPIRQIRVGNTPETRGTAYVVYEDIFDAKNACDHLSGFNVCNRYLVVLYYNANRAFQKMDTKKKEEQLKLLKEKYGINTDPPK
UniProt Q12872: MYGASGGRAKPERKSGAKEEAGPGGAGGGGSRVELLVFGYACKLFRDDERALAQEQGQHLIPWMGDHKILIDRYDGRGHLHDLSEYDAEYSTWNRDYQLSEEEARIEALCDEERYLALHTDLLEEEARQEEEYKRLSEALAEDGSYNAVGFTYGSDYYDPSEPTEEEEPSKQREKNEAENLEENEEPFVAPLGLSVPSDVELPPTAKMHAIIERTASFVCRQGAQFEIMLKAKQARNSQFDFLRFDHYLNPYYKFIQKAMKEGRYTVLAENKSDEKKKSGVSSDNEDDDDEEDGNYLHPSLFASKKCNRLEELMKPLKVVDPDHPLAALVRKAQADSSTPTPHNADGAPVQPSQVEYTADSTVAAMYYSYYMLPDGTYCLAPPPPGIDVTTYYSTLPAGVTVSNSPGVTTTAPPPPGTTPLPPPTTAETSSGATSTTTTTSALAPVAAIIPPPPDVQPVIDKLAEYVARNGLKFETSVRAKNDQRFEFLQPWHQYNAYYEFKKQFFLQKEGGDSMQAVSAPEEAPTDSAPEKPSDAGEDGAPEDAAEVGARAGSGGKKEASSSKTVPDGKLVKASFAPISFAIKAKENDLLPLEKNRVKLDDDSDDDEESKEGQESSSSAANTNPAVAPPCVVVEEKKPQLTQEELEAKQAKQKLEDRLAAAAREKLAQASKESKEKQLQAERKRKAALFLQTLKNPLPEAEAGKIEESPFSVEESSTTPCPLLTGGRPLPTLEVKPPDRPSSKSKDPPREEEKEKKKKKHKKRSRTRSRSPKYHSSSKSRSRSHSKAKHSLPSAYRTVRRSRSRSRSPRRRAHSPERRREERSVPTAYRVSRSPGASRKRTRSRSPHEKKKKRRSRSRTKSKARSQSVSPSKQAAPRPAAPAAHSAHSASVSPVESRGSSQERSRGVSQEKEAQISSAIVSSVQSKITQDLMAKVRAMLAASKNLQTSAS
UniProt Q14493, whole entry, looked up: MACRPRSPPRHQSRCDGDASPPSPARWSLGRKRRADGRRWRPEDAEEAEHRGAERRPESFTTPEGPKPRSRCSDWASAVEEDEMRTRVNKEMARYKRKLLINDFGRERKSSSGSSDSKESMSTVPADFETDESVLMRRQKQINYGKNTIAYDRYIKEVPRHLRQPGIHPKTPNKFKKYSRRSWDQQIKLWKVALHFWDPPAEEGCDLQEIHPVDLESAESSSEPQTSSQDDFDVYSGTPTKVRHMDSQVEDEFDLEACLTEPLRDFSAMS

[1] = compound: C/C(=N\NC(=O)C1=CC(=CC=C1)S(=O)(=O)N2CCOCC2)/C3=C(C=CC(=C3)Cl)O
Procedure, shortened: as §1

[2] = compound: C1=CC(=CC=C1C2=NC3=C(N2)C=C(C=C3)C(=O)N)OC4=CC=C(C=C4)Cl
Procedure, shortened: as §1

[3] = compound: C1=CC2=C(C=CC(=C2)/C=C\3/C(=O)NC(=NCC4=CC=CS4)S3)N=C1
Procedure, shortened: as §1

[4] = compound: C1=CC2=NC=CN=C2C=C1/C=C/3\C(=O)NC(=O)S3
Procedure, shortened: as §1

[5] = compound: C1=CC=C(C=C1)C2=NC(=C(N2)C3=CC=NC=C3)C4=CC(=C(C=C4)Cl)O
Procedure, shortened: as §1

[6] = compound: C1=CC=C2C(=C1)C3=NNC4=CC=CC(=C43)C2=O
Procedure, shortened: as §1

[7] = compound: C1CCN(C1)C(=O)NC2=CC=CC(=C2)NC3=NC=C(C(=N3)NCCC4=CN=CN4)Br
Procedure, shortened: as §1

[8] = compound: C1CN(CCC1(CC2=CC=C(C=C2)Cl)N)C3=NC=NC4=C3C=CN4
Procedure, shortened: as §1

IRAK-1-4 Inhibitor I = compound: C1COCCN1CCN2C3=CC=CC=C3N=C2NC(=O)C4=CC(=CC=C4)[N+](=O)[O-] [IRAK-1-4 Inhibitor I]
Procedure, shortened: as §1

Measured: log2 fold change

SFR1 isoform 2 (UniProt Q86XK3)
inactive: erlotinib -0.009 | [1] -0.019 | [2] 0.067 | [3] 0.015 | [4] -0.051 | [5] 0.018 | [6] 0.025 | [7] 0.04 | [8] 0.01 | IRAK-1-4 Inhibitor I 0.001

SIKE1 (UniProt Q9BRV8)
inactive: erlotinib -0.032 | [1] 0.043 | [2] -0.039 | [3] 0.042 | [4] -0.043 | [5] 0.033 | [6] -0.071 | [7] -0.01 | [8] -0.016 | IRAK-1-4 Inhibitor I 0.006

SIRT2 (UniProt Q8IXJ6)
inactive: erlotinib -0.04 | [1] -0.056 | [2] 0.002 | [3] 0.029 | [4] -0.036 | [5] 0.023 | [6] 0.048 | [7] -0.033 | [8] -0.042 | IRAK-1-4 Inhibitor I -0.051

SF3A3 (UniProt Q12874)
inactive: erlotinib -0.007 | [1] 0.037 | [2] -0.033 | [3] 0.014 | [4] 0.054 | [5] 0.011 | [6] -0.027 | [7] -0.028 | [8] 0.03 | IRAK-1-4 Inhibitor I -0.033

SHFL (UniProt Q9NUL5)
inactive: erlotinib -0.009 | [1] -0.031 | [2] 0.055 | [3] 0.124 | [4] 0.035 | [5] 0.013 | [6] -0.005 | [7] -0.021 | [8] 0.02 | IRAK-1-4 Inhibitor I -0.03

SLC12A2 (UniProt P55011)
inactive: erlotinib 0.039 | [1] -0.037 | [2] 0.007 | [3] -0.003 | [4] -0.066 | [5] -0.022 | [6] 0.01 | [7] -0.012 | [8] 0.018 | IRAK-1-4 Inhibitor I -0.003

SETD3 (UniProt Q86TU7)
inactive: erlotinib -0.045 | [1] 0.04 | [2] 0.005 | [3] 0.014 | [4] -0.039 | [5] 0.019 | [6] -0.007 | [7] -0.026 | [8] -0.018 | IRAK-1-4 Inhibitor I -0.059

SERPINH1 (UniProt P50454)
inactive: erlotinib 0.016 | [1] -0.014 | [2] 0.036 | [3] -0.016 | [4] 0.005 | [5] -0.004 | [6] 0.011 | [7] 0.001 | [8] 0.032 | IRAK-1-4 Inhibitor I 0.009

SERF2 (UniProt P84101)
inactive: erlotinib -0.057 | [1] -0.08 | [2] 0.066 | [3] -0.026 | [4] -0.042 | [5] -0.02 | [6] 0.093 | [7] -0.052 | [8] -0.038 | IRAK-1-4 Inhibitor I -0.022

SF3B5 (UniProt Q9BWJ5)
inactive: erlotinib 0.039 | [1] -0.074 | [2] 0.061 | [3] 0.021 | [4] 0.01 | [5] -0.052 | [6] 0.057 | [7] 0.05 | [8] 0.039 | IRAK-1-4 Inhibitor I -0.036

SGO1 (UniProt Q5FBB7)
inactive: erlotinib 0.057 | [1] -0.075 | [2] -0.011 | [3] 0.024 | [4] -0.024 | [5] -0.004 | [6] -0.044 | [7] 0.007 | [8] 0.032 | IRAK-1-4 Inhibitor I -0.005

SFPQ (UniProt P23246)
inactive: erlotinib -0.012 | [1] 0.1 | [2] 0.019 | [3] -0.014 | [4] -0.009 | [5] -0.004 | [6] -0.031 | [7] 0.007 | [8] -0.01 | IRAK-1-4 Inhibitor I -0.006

SKP1 (UniProt P63208)
inactive: erlotinib -0.005 | [1] 0.032 | [2] 0.037 | [3] -0.001 | [4] -0.016 | [5] 0.016 | [6] 0.003 | [7] 0.003 | [8] 0.009 | IRAK-1-4 Inhibitor I -0.008

SF1 isoform 5 (UniProt Q15637)
inactive: erlotinib -0.018 | [1] -0.023 | [2] 0.036 | [3] -0.023 | [4] 0.007 | [5] -0.077 | [6] -0.007 | [7] -0.009 | [8] -0.024 | IRAK-1-4 Inhibitor I 0.007

SH3BP1 (UniProt Q9Y3L3)
inactive: erlotinib 0.005 | [1] -0.041 | [2] 0.034 | [3] -0.022 | [4] -0.03 | [5] 0.003 | [6] -0.008 | [7] 0.004 | [8] 0.004 | IRAK-1-4 Inhibitor I 0.028

SF3B3 (UniProt Q15393)
inactive: erlotinib -0.012 | [1] -0.002 | [2] 0 | [3] -0.025 | [4] 0.003 | [5] 0.01 | [6] -0.005 | [7] 0.009 | [8] 0.005 | IRAK-1-4 Inhibitor I 0.03

SET isoform 2 (UniProt Q01105)
inactive: erlotinib -0.004 | [1] -0.029 | [2] 0.027 | [3] -0.052 | [4] 0.016 | [5] -0.004 | [6] 0.024 | [7] 0.027 | [8] 0.006 | IRAK-1-4 Inhibitor I 0.006

SH3BGRL2 (UniProt Q9UJC5)
inactive: erlotinib 0.007 | [1] -0.109 | [2] 0.035 | [3] 0.045 | [4] -0.049 | [5] 0.01 | [6] 0.018 | [7] -0.087 | [8] 0.034 | IRAK-1-4 Inhibitor I 0.007

SERBP1 (UniProt Q8NC51)
inactive: erlotinib 0.001 | [1] -0.022 | [2] 0.011 | [3] 0.032 | [4] -0.03 | [5] 0.034 | [6] 0.048 | [7] -0.004 | [8] -0.065 | IRAK-1-4 Inhibitor I -0.015

SIL1 (UniProt Q9H173)
inactive: erlotinib 0.018 | [1] -0.169 | [2] -0.008 | [3] 0.016 | [4] -0.019 | [5] 0.044 | [6] 0.01 | [7] -0.025 | [8] 0.04 | IRAK-1-4 Inhibitor I 0.049

SLC17A5 (UniProt Q9NRA2)
inactive: erlotinib -0.039 | [1] 0.135 | [2] 0.053 | [3] 0.087 | [4] -0.053 | [5] -0.044 | [6] 0.099 | [7] -0.13 | [8] 0.04 | IRAK-1-4 Inhibitor I 0.141

SERPINF1 (UniProt P36955)
inactive: erlotinib -0.108 | [1] 0 | [2] 0.089 | [3] 0.034 | [4] -0.001 | [5] -0.01 | [6] 0.057 | [7] -0.075 | [8] -0.01 | IRAK-1-4 Inhibitor I 0.022

SH3BP5 (UniProt O60239)
inactive: erlotinib -0.048 | [1] -0.043 | [2] 0.052 | [3] -0.069 | [4] 0.009 | [5] 0.053 | [6] -0.088 | [7] 0.007 | [8] -0.001 | IRAK-1-4 Inhibitor I -0.036

SLC12A6 (UniProt Q9UHW9)
inactive: erlotinib -0.014 | [1] -0.073 | [2] -0.047 | [3] 0.013 | [4] -0.006 | [5] -0.028 | [6] -0.01 | [7] -0.024 | [8] 0.068 | IRAK-1-4 Inhibitor I -0.01

SF3B6 (UniProt Q9Y3B4)
inactive: erlotinib 0.011 | [1] 0.047 | [2] 0 | [3] 0.001 | [4] 0.043 | [5] 0.034 | [6] 0.044 | [7] 0.004 | [8] -0.034 | IRAK-1-4 Inhibitor I -0.024

SFSWAP isoform 2 (UniProt Q12872)
inactive: erlotinib 0.022 | [1] -0.044 | [2] 0.006 | [3] 0.052 | [4] -0.115 | [5] -0.091 | [6] -0.006 | [7] 0 | [8] 0.023 | IRAK-1-4 Inhibitor I -0.006

SERPINB6, A0A087X1N8
inactive: erlotinib -0.003 | [1] -0.003 | [2] 0.032 | [3] 0.014 | [4] -0.013 | [5] -0.012 | [6] -0.007 | [7] 0.001 | [8] 0.018 | IRAK-1-4 Inhibitor I 0.016

SHROOM1 (UniProt Q2M3G4)
inactive: erlotinib 0.04 | [1] -0.046 | [2] 0.046 | [3] -0.03 | [4] -0.011 | [5] -0.041 | [6] 0.014 | [7] -0.01 | [8] 0.004 | IRAK-1-4 Inhibitor I 0.028

SLBP (UniProt Q14493)
inactive: erlotinib -0.061 | [1] 0.042 | [2] -0.086 | [3] -0.026 | [4] -0.042 | [5] -0.042 | [6] -0.004 | [7] 0.049 | [8] -0.028 | IRAK-1-4 Inhibitor I -0.029

SIN3A (UniProt Q96ST3)
inactive: erlotinib 0.01 | [1] -0.043 | [2] -0.005 | [3] -0.007 | [4] 0.009 | [5] 0.013 | [6] -0.004 | [7] -0.011 | [8] 0.008 | IRAK-1-4 Inhibitor I 0.017

Taken from the entries so far (2 entries):
SFSWAP isoform 2 (UniProt Q12872)
inactive: erlotinib 0.022 | [1] -0.044 | [2] 0.006 | [3] 0.052 | [4] -0.115 | [5] -0.091 | [6] -0.006 | [7] 0 | [8] 0.023 | IRAK-1-4 Inhibitor I -0.006

SERPINB6, A0A087X1N8
inactive: erlotinib -0.003 | [1] -0.003 | [2] 0.032 | [3] 0.014 | [4] -0.013 | [5] -0.012 | [6] -0.007 | [7] 0.001 | [8] 0.018 | IRAK-1-4 Inhibitor I 0.016
